Reference: paper PMC4625058

Protein sequences, listed by entry. Tags and fused reporters are not part of them. Lines headed by an entry give the natural chain unless they say otherwise; changes in a name come on top.
UniProt Q388G3: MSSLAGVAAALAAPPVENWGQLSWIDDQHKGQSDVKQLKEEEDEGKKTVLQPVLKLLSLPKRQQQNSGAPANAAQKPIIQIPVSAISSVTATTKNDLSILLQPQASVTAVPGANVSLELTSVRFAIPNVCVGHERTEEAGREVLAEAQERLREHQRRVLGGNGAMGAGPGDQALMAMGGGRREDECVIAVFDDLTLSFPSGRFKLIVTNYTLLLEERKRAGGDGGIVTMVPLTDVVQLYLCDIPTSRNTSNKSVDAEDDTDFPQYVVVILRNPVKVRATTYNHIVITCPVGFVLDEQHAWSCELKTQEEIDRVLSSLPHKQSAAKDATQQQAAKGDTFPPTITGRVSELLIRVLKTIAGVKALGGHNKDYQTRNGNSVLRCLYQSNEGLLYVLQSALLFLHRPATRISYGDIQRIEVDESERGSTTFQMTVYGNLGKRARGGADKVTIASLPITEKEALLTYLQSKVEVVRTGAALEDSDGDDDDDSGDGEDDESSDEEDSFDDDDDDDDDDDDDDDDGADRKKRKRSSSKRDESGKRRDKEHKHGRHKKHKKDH

Target: T. brucei FACT large subunit Spt16, tagged with a C-terminal PTP epitope (Trypanosoma brucei) (UniProt Q580R3)
Test: affinity purification with mass spectrometry; tandem affinity purification of Spt16-PTP from lysate of about 2 x 10^10 procyclic-form cells: IgG Sepharose, TEV cleavage, anti-Prot C matrix with Ca2+, elution with EGTA; SDS-PAGE bands identified by mass spectrometry

**Q.** For “T. brucei Pob3, small subunit of the FACT complex (from UniProt Q388G3)”, which binding is on record?
**A.** binds

These are yes or no findings as the source states them, for the method shown. Binding seen in cells or lysates may run through a third protein. These calls come from enrichment with a bait or labelling near it, and not all partners need be listed.
